# Measurements published in article PMC5217387.
# Amino acid sequences for entries named in this document (tags omitted). Residues count along the entry.
# UniProt P12763, residues 19-359: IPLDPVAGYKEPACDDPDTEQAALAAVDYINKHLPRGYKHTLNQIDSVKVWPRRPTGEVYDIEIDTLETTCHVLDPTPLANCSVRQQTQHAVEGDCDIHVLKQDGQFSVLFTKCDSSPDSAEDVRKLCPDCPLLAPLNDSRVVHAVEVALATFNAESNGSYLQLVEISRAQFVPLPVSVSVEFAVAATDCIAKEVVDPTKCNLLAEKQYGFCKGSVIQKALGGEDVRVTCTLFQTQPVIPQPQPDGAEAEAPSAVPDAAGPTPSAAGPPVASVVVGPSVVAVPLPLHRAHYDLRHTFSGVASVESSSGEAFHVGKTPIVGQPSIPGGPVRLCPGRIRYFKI
# No constants are given. Whether binding was seen depends on the method and setting. In cells and extracts the contact can be indirect. These calls come from enrichment with a bait or labelling near it, and not all partners need be listed.
# Target: fetuin (bovine) (UniProt P12763)
# Test: affinity purification with mass spectrometry; 1 mg purified host protein (fibronectin, plasminogen, actin or fetuin) biotinylated and bound to avidin agarose; incubated 16 h at 4 °C with M. pneumoniae lysate (1% C7BzO in PBS pH 7.8); washed with PBS; eluted with 7 M urea, 2 M thiourea, 40 mM Tris-HCl, 1% C7BzO; eluate size-fractionated by 1D SDS-PAGE, in-gel trypsin digest, LC-MS/MS; only the target purified
row,Binder,binding
1,"Mpn142 Fragment 5 (domain or fragment, UniProt Q50341 775-1218) EQRNGVKISTLESQATDGFANSLLNFGTGLKAGVDPAPVARGHKPNYSAVLLVRGGVVRLNFNPDTDKLLDSTDKNSEPISFSYTPFGSAESAVDLTTLKDVTYIAESGLWFYTFDNGEKPTYDGKQQQVKNRKGYAVITVSRTGIEFNEDANTTTLSQAPAALAVQNGIASSQDDLTGILPLSDEFSAVITKDQTWTGKVDIYKNTNGLFEKDDQLSENVKRRDNGLVPIYNEGIVDIWGRVDFAANSVLQARNLTDKTVDEVINNPDILQSFFKFTPAFDNQRAMLVGEKTSDTTLTVKPKIEYLDGNFYGEDSKIAGIPLNIDFPSRIFAGFAALPSWVIPVSVGSSVGILLILLILGLGIGIPMYKVRKLQDSSFVDVFKKVDTLTTAVGSVYKKIITQTSVIKKAPSALKAANNAAPKAPVKPAAPTAPRPPVQPPKKA",binds
2,"Mpn142 Fragment 9 (domain or fragment, UniProt Q50341 696-1218) GLNFNFKLNEERLPSRTDQLLVYGIVNESELKSARENAQSTSDDNSNTKVKWTNTASHYLPVPYYYSANFPEAGNRRRAEQRNGVKISTLESQATDGFANSLLNFGTGLKAGVDPAPVARGHKPNYSAVLLVRGGVVRLNFNPDTDKLLDSTDKNSEPISFSYTPFGSAESAVDLTTLKDVTYIAESGLWFYTFDNGEKPTYDGKQQQVKNRKGYAVITVSRTGIEFNEDANTTTLSQAPAALAVQNGIASSQDDLTGILPLSDEFSAVITKDQTWTGKVDIYKNTNGLFEKDDQLSENVKRRDNGLVPIYNEGIVDIWGRVDFAANSVLQARNLTDKTVDEVINNPDILQSFFKFTPAFDNQRAMLVGEKTSDTTLTVKPKIEYLDGNFYGEDSKIAGIPLNIDFPSRIFAGFAALPSWVIPVSVGSSVGILLILLILGLGIGIPMYKVRKLQDSSFVDVFKKVDTLTTAVGSVYKKIITQTSVIKKAPSALKAANNAAPKAPVKPAAPTAPRPPVQPPKKA",binds
3,"Mpn142 Fragment 1 (domain or fragment, UniProt Q50341 26-308) NTYLLQDHNTLTPYTPFTTPLNGGLDVVRAAHLHPSYELVDWKRVGDTKLVALVRSALVRVKFQDTTSSDQSNTNQNALSFDTQESQKALNGSQSGSSDTSGSNSQDFASYVLIFKAAPRATWVFERKIKLALPYVKQESQGSGDQGSNGKGSLYKTLQDLLVEQPVTPYTPNAGLARVNGVAQDTVHFGSGQESSWNSQRSQKGLKNNPGPKAVTGFKLDKGRAYRKLNESWPVYEPLDSTKEGKGKDESSWKNSEKTTAENDAPLVGMVGSGAAGSASSLQ",binds
4,"Mpn142 Fragment 12 (domain or fragment, UniProt Q50341 982-1218) NGLFEKDDQLSENVKRRDNGLVPIYNEGIVDIWGRVDFAANSVLQARNLTDKTVDEVINNPDILQSFFKFTPAFDNQRAMLVGEKTSDTTLTVKPKIEYLDGNFYGEDSKIAGIPLNIDFPSRIFAGFAALPSWVIPVSVGSSVGILLILLILGLGIGIPMYKVRKLQDSSFVDVFKKVDTLTTAVGSVYKKIITQTSVIKKAPSALKAANNAAPKAPVKPAAPTAPRPPVQPPKKA",binds
5,"P90 (Mpn142 Fragment 2) (domain or fragment, UniProt Q50341 446-1218) AVTVVAGPLRAGNSSETDALPNVITQLYHTSTAQLAYLNGQIVVMGSDRVPSLWYWVVGEDQESGKATWWAKTELNWGTDKQKQFVENQLGFKDDSNSDSKNSNLKAQGLTQPAYLIAGLDVVADHLVFAAFKAGAVGYDMTTDSSASTYNQALAWSTTAGLDSDGGYKALVENTAGLNGPINGLFTLLDTFAYVTPVSGMKGGSQNNEEVQTTYPVKSDQKATAKIASLINASPLNSYGDDGVTVFDALGLNFNFKLNEERLPSRTDQLLVYGIVNESELKSARENAQSTSDDNSNTKVKWTNTASHYLPVPYYYSANFPEAGNRRRAEQRNGVKISTLESQATDGFANSLLNFGTGLKAGVDPAPVARGHKPNYSAVLLVRGGVVRLNFNPDTDKLLDSTDKNSEPISFSYTPFGSAESAVDLTTLKDVTYIAESGLWFYTFDNGEKPTYDGKQQQVKNRKGYAVITVSRTGIEFNEDANTTTLSQAPAALAVQNGIASSQDDLTGILPLSDEFSAVITKDQTWTGKVDIYKNTNGLFEKDDQLSENVKRRDNGLVPIYNEGIVDIWGRVDFAANSVLQARNLTDKTVDEVINNPDILQSFFKFTPAFDNQRAMLVGEKTSDTTLTVKPKIEYLDGNFYGEDSKIAGIPLNIDFPSRIFAGFAALPSWVIPVSVGSSVGILLILLILGLGIGIPMYKVRKLQDSSFVDVFKKVDTLTTAVGSVYKKIITQTSVIKKAPSALKAANNAAPKAPVKPAAPTAPRPPVQPPKKA",binds
6,"Mpn142 Fragment 8 (domain or fragment, UniProt Q50341 1022-1218) NSVLQARNLTDKTVDEVINNPDILQSFFKFTPAFDNQRAMLVGEKTSDTTLTVKPKIEYLDGNFYGEDSKIAGIPLNIDFPSRIFAGFAALPSWVIPVSVGSSVGILLILLILGLGIGIPMYKVRKLQDSSFVDVFKKVDTLTTAVGSVYKKIITQTSVIKKAPSALKAANNAAPKAPVKPAAPTAPRPPVQPPKKA",binds
